Paper PMC12501432
No constants are given. Whether binding was seen depends on the method and setting. In cells and extracts the contact can be indirect. Some binding calls cover weakened binding; strength is not graded here.

The chains behind the UniProt entries cited, without tags or fusion partners.
UniProt P19474: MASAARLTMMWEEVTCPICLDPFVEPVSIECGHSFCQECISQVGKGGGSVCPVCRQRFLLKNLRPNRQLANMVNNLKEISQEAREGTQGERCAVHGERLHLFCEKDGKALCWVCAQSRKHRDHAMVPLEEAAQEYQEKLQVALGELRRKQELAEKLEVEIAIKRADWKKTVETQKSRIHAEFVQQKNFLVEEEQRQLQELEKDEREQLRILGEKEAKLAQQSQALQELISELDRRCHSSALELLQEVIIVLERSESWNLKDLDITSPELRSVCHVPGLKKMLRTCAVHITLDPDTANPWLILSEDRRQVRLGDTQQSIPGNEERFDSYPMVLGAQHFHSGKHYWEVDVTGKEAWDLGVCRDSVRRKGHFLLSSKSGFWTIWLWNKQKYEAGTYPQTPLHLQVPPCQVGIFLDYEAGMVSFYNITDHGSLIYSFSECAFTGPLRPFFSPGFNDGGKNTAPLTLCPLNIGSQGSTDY
UniProt P42224: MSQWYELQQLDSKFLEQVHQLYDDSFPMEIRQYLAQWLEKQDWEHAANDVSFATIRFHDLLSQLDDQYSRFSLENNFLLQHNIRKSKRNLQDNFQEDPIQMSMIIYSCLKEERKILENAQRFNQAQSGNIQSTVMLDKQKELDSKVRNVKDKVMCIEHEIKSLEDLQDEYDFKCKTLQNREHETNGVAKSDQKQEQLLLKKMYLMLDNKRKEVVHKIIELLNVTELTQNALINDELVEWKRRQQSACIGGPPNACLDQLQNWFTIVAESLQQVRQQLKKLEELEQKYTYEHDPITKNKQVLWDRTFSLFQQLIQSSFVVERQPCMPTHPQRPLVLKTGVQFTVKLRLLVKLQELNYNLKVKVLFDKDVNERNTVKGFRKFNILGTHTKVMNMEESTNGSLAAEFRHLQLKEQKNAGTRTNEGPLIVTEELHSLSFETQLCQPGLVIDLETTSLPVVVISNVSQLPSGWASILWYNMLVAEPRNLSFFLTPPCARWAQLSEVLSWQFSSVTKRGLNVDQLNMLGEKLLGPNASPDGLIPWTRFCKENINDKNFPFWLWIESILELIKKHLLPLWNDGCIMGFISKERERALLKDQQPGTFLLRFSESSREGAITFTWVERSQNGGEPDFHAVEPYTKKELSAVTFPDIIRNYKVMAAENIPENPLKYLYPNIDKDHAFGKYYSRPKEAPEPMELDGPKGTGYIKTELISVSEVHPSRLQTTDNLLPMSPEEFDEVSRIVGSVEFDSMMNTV

Molecular target: tripartite motif-containing 21 (TRIM21) (human (endogenous in PC-9)) (UniProt P19474)
Test: co-IP; PC-9 cell lysate; supernatants mixed overnight at 4 °C with anti-TRIM21 or anti-STAT1 antibody and protein A/G beads, then Western blot; also in PC-9 cells overexpressing or inhibiting tRF3a-MetCAT (Fig. 6I)

binding: binds
Substance: signal transducer and activator of transcription 1 (STAT1) (from UniProt P42224 1-750)
